Some results were stated once for a whole list of compounds, not compound by compound.
Tests used:
rhino mouse skin = assay: Rhino mouse topical treatment: gross skin irritation (modified Draize scale); type: in vivo; conditions: 0.1% topical daily for 21 days
Protocol: FIGS. 10A-C: Lack of Dose-related skin irritation after 21 day topical treatment of rhino mice with 100 μL DMSO control (10A) and 100 μL DMSO containing Example 2 at 0.1 (10B) and 0.3% concentrations (10C).
FIG. 11. […] The cumulative irritation score is a modified version of the Draize irritation scale, and the animals were assessed daily by an assessor who was blinded to the treatment given each mouse.
Rhino mice (HRS\J hr^rhhr^rh)) were obtained from Jackson Laboratories. Animals were recent weanlings; at this stage in the life of the rhinomouse, the phenotype (i.e., skin with numerous horn-filled utriculi) is well expressed and continues to be for several weeks. Both males and females were included. Animals were divided into treatment groups. Once in the laboratory, the mice were kept in temperature- and humidity-controlled rooms. All procedures during the in-life portion of the study were carried out in facilities of the Unit for Laboratory Animal Medicine (ULAM) at the University of Michigan—which is an AAALAC-certified institution. All procedures were carried out with approval by the University of Michigan Institutional Animal Care and Use Committee (IACUC).
As a control, Tretinoin-0.1% was used. […] This is a commonly-prescribed anti-acne medicine.
Animals were housed individually during the treatment phase of the study. During the treatment phase, animals were assessed daily for overall health, and for signs of skin irritation. The Draize scale was used to assess skin irritation. The Draize scale evaluates the parameters of erythema and edema. Each parameter was scored between 0 and 4+ with 0 indicating no difference from control mice and 4+ indicating maximum erythema or edema. In addition, animals were assessed for dryness/flaking/cracking (single score). The overall irritation score was a compilation of the three parameters in all mice from a treatment group. During the treatment phase, animals were weighed weekly.
FIG. 1 left provides a summation of the skin irritation response in the different treatment groups. In control mice, there was little evidence of skin irritation at any time throughout the study. […] The initial spike in irritation was followed by a dip and then secondary rise. This is consistent with what is typically seen with ATRA. […] Neither the control mouse nor the Compound 1 & 2 treated mice show visible signs of irritation in the skin. In contrast, skin from the ATRA-treated mouse is red, dry and flaky. Small cracks in the skin can be seen and there is significant edema.

[1] = Rhino mouse topical treatment: spleen size; type: in vivo; conditions: 0.1% topical, 21 days
Source text: Mouse skin is rather thinner than human skin, and topically applied drugs tend to get into the circulation more readily when applied to mice, especially the hairless mutants, than to humans.

SMILES	cumulative irritation score (modified Draize scale) (rhino mouse skin)	spleen size (splenomegaly) [1]
CC1=C(/C=C/C(C)=C\C=C\C(C)=C\C(=O)N2CCCC(=O)C2)C(C)(C)CCC1 [Example 3, 1-((2E,4E 6Z,8E)-3,7-dimethyl-9-(2,6,6-trimethylcyclohex-1-en-1-yl)nona-2,4,6,8-tetranonyl)piperidin-3-one]	stable, and lower irritation scores after two weeks	very modest splenomegaly
CC1=C(/C=C/C(C)=C\C=C\C(C)=C\C(=O)N(C)CC(=O)c2ccccc2)C(C)(C)CCC1 [Example 2, (2E,4E 6Z,8E)-N,3,7-trimethyl—N-(2-oxo-2-phenylethyl)-9-(2,6,6-trimethylcyclohex-1-en-1-yl)nona-2,4,6,8-tetraenamide]	stable, and lower irritation scores after two weeks	very modest splenomegaly
CC1=C(/C=C/C(C)=C\C=C\C(C)=C\C(=O)N(C)CC(=O)C(C)(C)C)C(C)(C)CCC1 [Example 1, (2E,4E 6Z,8E)-N-(3,3-dimethyl-2-oxobutyl)-N,3,7-trimethyl-9-(2,6,6-trimethylcyclohex-1-en-1-yl)nona-2,4,6,8-tetraenamide]	stable, and lower irritation scores after two weeks	very modest splenomegaly
CC1=C(/C=C/C(C)=C\C=C\C(C)=C\C(=O)N(C)CC(=O)C2(C)CC2)C(C)(C)CCC1 [Example 4, (2E,4E,6Z,8E)-N,3,7-trimethyl—N-(2-(1-methylcyclopropyl)-2-oxoethyl)-9-(2,6,6-trimethylcyclohex-1-en-1-yl)nona-2,4,6,8-tetraenamide]	stable, and lower irritation scores after two weeks	very modest splenomegaly

Source: patent US11148998B2, “Dimethyl-nonatetraenyl-trimethyl-cyclohexyl compounds and uses thereof” (The Regents of the University of Michigan, priority 2017, dated 2021)
